# Primary screen of a compound library

Amino acid sequences for entries named in this document (tags omitted). Residues count along the entry.
UniProt Q8IDJ8, 1-583: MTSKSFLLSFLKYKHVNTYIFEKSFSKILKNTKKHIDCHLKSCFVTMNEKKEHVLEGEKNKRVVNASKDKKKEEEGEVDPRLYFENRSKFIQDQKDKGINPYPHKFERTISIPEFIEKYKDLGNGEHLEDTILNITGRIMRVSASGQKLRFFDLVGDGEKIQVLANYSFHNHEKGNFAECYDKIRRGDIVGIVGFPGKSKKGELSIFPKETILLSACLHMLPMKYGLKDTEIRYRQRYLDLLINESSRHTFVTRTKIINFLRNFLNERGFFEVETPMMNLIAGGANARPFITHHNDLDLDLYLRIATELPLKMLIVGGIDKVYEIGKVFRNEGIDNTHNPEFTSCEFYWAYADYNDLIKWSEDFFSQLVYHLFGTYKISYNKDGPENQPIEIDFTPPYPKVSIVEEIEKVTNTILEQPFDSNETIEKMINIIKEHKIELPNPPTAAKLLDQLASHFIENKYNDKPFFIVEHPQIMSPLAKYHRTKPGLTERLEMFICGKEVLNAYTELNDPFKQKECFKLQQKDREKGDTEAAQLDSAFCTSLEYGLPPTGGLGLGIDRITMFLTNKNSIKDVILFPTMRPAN

The values are deposited in ChEMBL (CHEMBL3988442, “University of Dundee, Small-Polar-MMV Screening Library” (2021)).

The filed quantity is “Percent Effect” (%). How 0% and 100% were set is not recorded. Most values in the screen are low, and negative values occur. The compounds are a random part of those screened.

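Lysine-tRNA ligase, Plasmodium falciparum 3D7 (UniProt Q8IDJ8). Enzyme assay of the cytosolic lysyl-tRNA synthetase in 384-well plates, read by luminescence. Concentration: 30 µM. Higher reads as stronger inhibition, judged from the few compounds that gave an IC50. About 69,000 compounds were tested under these conditions; 0.071% (about 49) showed 50% or more at least once.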

- OC(COCc1ccccc1)CSc1nnc2ccccn12 (stereo not given) : 3.479%
- CCN(CC(=O)Nc1c(C)n[nH]c1C)CC(O)c1ccc(C)cc1 (stereo not given) : 1.947%
- CCN(C)c1ccc(CNC(=O)c2ccc(NC(N)=O)cc2)cc1F : 3.106%
- O=C(c1cnc[nH]1)N1CCC(Oc2cccnc2)CC1 : 4.021%
- CC(C)[C@@H](N)C(=O)NCc1cccnc1N1CCc2ccccc2C1 : 6.106%
- Cc1nn(Cn2ccc(C(=O)N3CCC(C)CC3)n2)c(C)c1Cl : 2.835%
- Cc1ccc(C(NC(=O)CN2CCc3c(ncn3C)C2)C2CC2)cc1 (stereo not given) : 0.5575%
- O=C(CC1CCCCC1)N1CCOCC1CO (stereo not given) : 3.322%
- COC(=O)NCC(=O)N1CCCCC1c1nc2cc(F)ccc2[nH]1 (stereo not given) : 6.443%
- CN(C)C(=O)NC1COC2(CCN(Cc3ccccc3)CC2)C1 (stereo not given) : -12.31%
- Cc1ncc2c(n1)CCCC2NC(=O)c1ccccc1C(=O)O (stereo not given) : -2.265%
- CS(=O)(=O)C1CCN(S(=O)(=O)c2ccc(F)c(F)c2)CC1 : 6.129%
- CCN(Cc1cnn(C)c1)S(=O)(=O)c1ccc(NC(C)=O)cc1 : 2.838%
- CC(C)[C@@H]1CN(C(=O)NCc2ccco2)C[C@H]1NS(=O)(=O)N(C)C : 2.361%
- Cc1cnn(CC2CCCN2C(=O)c2ccc(Cl)cc2F)c1 (stereo not given) : -0.7905%
- COCC1COCCC12CCN(CCc1ccccc1)CC2 (stereo not given) : 10.25%
- Cc1cc(NCc2ccc(S(N)(=O)=O)cc2)nc(C)n1 : 2.429%
- Cc1nc(C)n(C2CCCN(C(=O)c3ccc4[nH]nnc4c3)C2)n1 (stereo not given) : -1.367%
- CC(C)CNC(=O)Nc1ccc(CN2CCOC2=O)cc1 : -1.137%
- CO[C@H]1CCN(C(=O)Cc2ccc(F)cc2)[C@H]1Cc1ccncc1 : 12.33%
- COc1ccc(Cn2nc(C(N)=O)ccc2=O)c(Cl)c1 : 2.141%
- COCC1CC2(CCNCC2)CN1c1ncccn1 (stereo not given) : 10.57%
- CN(CCc1cnn(C)c1)C(=O)C(c1ccccc1F)N(C)C (stereo not given) : 5.233%
- COc1ccc2c(ccn2CCC(=O)NCc2ccc(C(=O)O)cc2)c1 : 5.86%
- Cc1nc(CCNC(=O)C2CCN(C(C)C)CC2)sc1Cl : 10.83%
- CC1CN(c2cc(CNCc3cccc4c3OCCO4)ccn2)CCO1 (stereo not given) : 4.032%
- CCCC(=O)Nc1cc2c(cc1OC)NC(=O)CC2c1ccc(CC)o1 (stereo not given) : 3.825%
- Cc1cccc(-c2nc(CN3CC(n4nc(C)cc4C)C3)no2)c1 : 3.064%
- COc1ccc(-c2cc3nc(CCNC(=O)CN(C)C)nn3cn2)cc1 : 0.1606%
- OC1CCN(c2ccc(CNc3nc4ccccc4o3)cc2F)CC1 : 6.995%
- O=C(NC1CCN(c2cc(-n3ccnc3)ncn2)CC1)c1ccncc1 : 0.3747%
- O=C(CN1C(=O)CCC1=O)NCc1cc(C2CC2)n(C2CCCC2)n1 : 1.935%
- CC(C)n1nc(Cn2cccn2)c2c1CN(C1CCOC1)C2 (stereo not given) : 6.046%
- Cc1ccc(C(=O)N2CCC3(CC2)CCN(CCN(C)C)C3=O)cn1 : 8.266%
- Cc1cc(C(=O)NCCN2CCCCCC2)nn1C(C)(C)C : -1.564%
- Cc1ccc(Cl)c(C(C(=O)O)N(C)Cc2cnn(C)c2)c1 (stereo not given) : 5.067%
- Cc1nc(C)n(CC2CCCN(CC(=O)NC3CCOCC3)C2)n1 (stereo not given) : 1.504%
- COc1ccc(CNC(=O)CCc2c(C)noc2C)cc1F : 5.561%
- Cc1c(C(=O)N2CCN(C)[C@@H]3CS(=O)(=O)C[C@@H]32)[nH]c2ccc(F)cc12 : 3.274%
- CCS(=O)(=O)NC[C@]12COC[C@H]1CN(Cc1cccnc1OC)C2 : 6.018%
- CCn1ccnc1CN1CCN(CC(O)c2ccco2)CC1 (stereo not given) : 0.6137%
- Cc1ccc2[nH]c(=O)cc(C(=O)NCCCn3nccc3C3CC3)c2c1 : 5.561%
- O=C(NCC1CN(c2ncccn2)Cc2nccn2C1)c1cccnc1 (stereo not given) : 4.827%
- CCn1nc(C)cc1C(=O)OCCNc1ncnc2ccccc12 : -0.9678%
- CCn1ncc2c1CCCC2NCc1ccc(OC)c(C)c1 (stereo not given) : 14.92%
- CCOc1cc(CNCc2ncc[nH]2)c(Cl)cc1OC(C)C : -0.8636%
- CN1C[C@H](O)[C@]2(CCN(C(=O)NCc3ccccc3)C2)S1(=O)=O : 1.266%
- O=C(CCC(=O)Nc1ccccc1)NCC(=O)c1ccc(F)cc1F : 5.047%
- CCc1csc(C2CCCN(C(=O)c3ccc(OC)nn3)C2)n1 (stereo not given) : 4.301%
- CSCCC(C)NC(=O)c1cccc(-c2n[nH]c(C)n2)c1 (stereo not given) : 2.695%
- CN1CCCC(CCC(=O)N2CCc3onc(C(=O)N(C)C)c3C2)C1 (stereo not given) : 7.074%
- OC1(CNc2ccc(Br)cn2)CCOCC1 : 0.26%
- Cc1cccc(C(=O)N2CCC(c3n[nH]c(C4CC4)n3)CC2)c1 : -4.339%
- O=C(c1cn(CCN2CCCCC2)nn1)N1CCCO1 : 2.7%
- Cc1cc(CN(C)Cc2ccccc2N2CCCCC2)n[nH]1 : 3.005%
- N#Cc1cc(NC(=O)c2ccsc2)ccc1N1CCC(O)CC1 : 0.7169%
- O=C(NC[C@H]1C[C@@H]2CN(C(=O)c3ccco3)C[C@@H]2O1)c1ccsc1 : 3.857%
- CS(=O)(=O)c1ccc(CNCC2CCN(CCO)CC2)cc1 : -4.161%

Once more, the final 6:

SMILES	Percent Effect
Cc1cccc(C(=O)N2CCC(c3n[nH]c(C4CC4)n3)CC2)c1	-4.339%
O=C(c1cn(CCN2CCCCC2)nn1)N1CCCO1	2.7%
Cc1cc(CN(C)Cc2ccccc2N2CCCCC2)n[nH]1	3.005%
N#Cc1cc(NC(=O)c2ccsc2)ccc1N1CCC(O)CC1	0.7169%
O=C(NC[C@H]1C[C@@H]2CN(C(=O)c3ccco3)C[C@@H]2O1)c1ccsc1	3.857%
CS(=O)(=O)c1ccc(CNCC2CCN(CCO)CC2)cc1	-4.161%